{"sequences": {"note": "Protein sequences, listed by entry. Tags and fused reporters are not part of them.", "UniProt Q9KIB9": "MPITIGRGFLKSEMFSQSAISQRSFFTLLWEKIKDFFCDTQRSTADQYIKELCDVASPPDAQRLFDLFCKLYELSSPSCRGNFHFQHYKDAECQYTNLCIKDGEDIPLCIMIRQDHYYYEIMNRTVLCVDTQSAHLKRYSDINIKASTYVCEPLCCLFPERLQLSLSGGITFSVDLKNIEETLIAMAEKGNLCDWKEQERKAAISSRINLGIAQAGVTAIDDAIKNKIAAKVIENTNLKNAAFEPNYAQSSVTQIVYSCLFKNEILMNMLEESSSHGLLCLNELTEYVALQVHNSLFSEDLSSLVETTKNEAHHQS"}, "source": "paper PMC7342019", "binders": {"B1": {"name": "FLAG-TMEM127 (protein, UniProt O75204 1-238)", "chain": "MYAPGGAGLPGGRRRRSPGGSALPKQPERSLASALPGALSITALCTALAEPAWLHIHGGTCSRQELGVSDVLGYVHPDLLKDFCMNPQTVLLLRVIAAFCFLGILCSLSAFLLDVFGPKHPALKITRRYAFAHILTVLQCATVIGFSYWASELILAQQQQHKKYHGSQVYVTFAVSFYLVAGAGGASILATAANLLRHYPTEEEEQALELLSEMEENEPYPAEYEVINQFQPPPAYTP"}}, "target": "GFP-SifB (Salmonella) (UniProt Q9KIB9)", "experiment": "co-IP; HEK293ET cells co-transfected, lysed 24 h later in 150 mM NaCl, 50 mM Tris pH 7.4, 5 mM EDTA, 0.5% Triton X100, 5% glycerol; GFP-tagged protein precipitated with GFP-trap beads 2 h at 4°C; immunoblot with anti-GFP and anti-FLAG", "note": "These are yes or no findings as the source states them, for the method shown. Binding seen in cells or lysates may run through a third protein. Sequences can lack the tags named with a protein."}
{"binder": "B1", "values": [{"measurement": "binding", "result": "no binding"}]}
